Experimental data: PubChem BioAssay AID540256 (National Center for Advancing Translational Sciences (NCATS), 2011)
The campaign covered roughly 300,000 compounds. About 3,700 (1.2%) were called active. Inconclusive results, whose numbers are uncertain, are shown with a selection of clear calls. Calls follow the shape of the full dose curve; tested in HEK293 cells. Potencies of inconclusive entries are doubtful fits and often do not repeat.

Experiment: qHTS for Inhibitors of binding or entry into cells for Lassa Virus; also: nearly all actives have a fitted effect of over 50% in size
Conditions: Lassa virus pseudotype entry inhibition, cell reporter; series mostly up to 37.9 µM
Potency is read from the fitted curve at half-maximal effect.

| SMILES | Potency |
| --- | --- |
| COc1ccc(OC)c(CC2C(=O)Nc3ccc(Br)cc32)c1 (stereo unspecified) | inconclusive: 12.6 µM [inhibitor, single point] |
| Cn1c(C(=O)NCc2ccccc2)cc2oc3ccccc3c21 | inconclusive: 13 µM [inhibitor, partial curve, poor fit] |
| COc1ccc2c(c1)c(=O)oc1cc(OCC(=O)N3CCc4ccccc4C3)ccc12 | inconclusive: 0.0046 µM [activator, full curve, poor fit] |
| COC(=O)N/N=C/c1cn(CCCOc2ccccc2)c2ccccc12 | inconclusive: 23.1 µM [inhibitor, single point] |
| CC(=O)N(C)c1nnc(-c2ccccn2)s1 | inconclusive: 3.16 µM [activator, full curve, poor fit] |
| CCOc1ccc(CNC(=O)C2=Cc3cccc(OC)c3OC2)cc1 | inconclusive: 35.5 µM [activator, single point] |
| COc1ccccc1C(=O)COC(=O)c1cc(=O)[nH]c2ccccc12 | inconclusive: 6.31 µM [activator, partial curve] |
| CCOc1ccc(Cn2c(CNS(=O)(=O)c3ccc(C(C)(C)C)cc3)nc3cccnc32)cc1 | inactive |
| CC(C)(C)c1ccc(NC(=O)N2CCCN(c3ccc([N+](=O)[O-])cn3)CC2)cc1 | inconclusive: 35.5 µM [inhibitor, single point] |
| COCCN(CC(=O)NCC1CCCO1)C(=O)CCC(=O)Nc1cc(C)on1 (stereo unspecified) | inactive |
| O=S(=O)(Nc1ncccn1)c1ccc(NC(=S)Nc2ccccc2)cc1 | inconclusive: 0.562 µM [activator, full curve, poor fit] |
| COc1ccc(Cl)cc1C(=O)NCCS(=O)(=O)N1CCN(c2ccccc2OC)CC1 | inactive |
| COc1cccc(NC(=O)Cn2c(=O)n(Cc3ccc(C(=O)NCc4ccc(C)cc4)cc3)c(=O)c3ccccc32)c1 | inconclusive: 22.4 µM [activator, single point] |
| CC(C)OC(=O)c1cc(NC(=O)c2nn(C)cc2Br)cc(C(=O)OC(C)C)c1 | active: 5.17 µM |
| Cc1ccc2c(=O)c(C(=O)c3ccc(Cl)cc3)cn(CC(=O)Nc3ccc4c(c3)OCCO4)c2n1 | inactive |
| O=C(Cc1ccccc1)N/N=C/c1cc(Br)cc(Cl)c1O | inconclusive: 11.2 µM [inhibitor, partial curve, poor fit] |
| COc1ccc(-n2cc(-c3ccccc3)c3c(N4CC(C)OC(C)C4)ncnc32)cc1 (stereo unspecified) | inconclusive: 12.6 µM [inhibitor, single point] |
| CC12COC3(C(=O)Nc4ccc5ccccc5c4)CC1CCC32C (stereo unspecified) | inconclusive: 35.5 µM [inhibitor, single point] |
| COc1ccc(C(=O)N(Cc2ccccc2)c2cccc(C)c2)c(OC)c1OC | inconclusive: 10 µM [inhibitor, partial curve, poor fit] |
| CN(C)CCNC(=O)c1ccccc1 | inactive |
| CC(C)c1ccc(N2C=Nc3ccc(C(C)C)cc3C2)cc1 | inconclusive: 1.26 µM [inhibitor, single point] |
| CNc1nc(Oc2ccc(C(=O)OC)cc2)nc(SC)n1 | inconclusive: 6.51 µM [activator, partial curve, poor fit] |

Individual results from above:
Potency with `CC(C)OC(=O)c1cc(NC(=O)c2nn(C)cc2Br)cc(C(=O)OC(C)C)c1` reads active: 5.17 µM
Potency with `COc1cccc(NC(=O)Cn2c(=O)n(Cc3ccc(C(=O)NCc4ccc(C)cc4)cc3)c(=O)c3ccccc32)c1` reads inconclusive: 22.4 µM [activator, single point]
Potency with `CCOc1ccc(CNC(=O)C2=Cc3cccc(OC)c3OC2)cc1` reads inconclusive: 35.5 µM [activator, single point]

Later entries.

| SMILES | Potency |
| --- | --- |
| Cc1ccc(C(C)C)c(OCC(=O)N/N=C/C2CCCCC2)c1 | inconclusive: 11.2 µM [activator, partial curve, poor fit] |
| COc1ccc(S(=O)(=O)NC(C)C(=O)Nc2ccccc2)cc1Cl (stereo unspecified) | inconclusive: 3.55 µM [inhibitor, single point] |
| O=C(Cc1ccc(NC(=O)N2CCSc3ncccc32)cc1)NCc1cccc(Cl)c1 | inactive |
| COc1ccc(OC)c(NC(=O)NNC(=O)CCCOc2ccc(Cl)cc2C)c1 | inactive |
| Nc1nc(SCc2ccc(Cl)cc2Cl)n[nH]1 | inconclusive: 17.8 µM [activator, partial curve, poor fit] |
| CCOc1ccc(C(=O)OCC(=O)Nc2cccc(S(=O)(=O)N3CCCC3)c2)cc1 | inconclusive: 7.08 µM [inhibitor, partial curve, poor fit] |
| Cc1ccc(Sc2cc(C)nc(-c3ccccn3)n2)cc1 | inconclusive: 2.24 µM [inhibitor, partial curve, poor fit] |
| CCCOc1cccc(C(=O)NC(=S)Nc2cccc(C(F)(F)F)c2)c1 | inconclusive: 29.1 µM [inhibitor, single point] |
| Cc1ccc(S(=O)(=O)N2CCN(C(=O)c3sccc3C)CC2)cc1 | inconclusive: 6.31 µM [inhibitor, single point] |
| CCCC(=O)Nc1c2c(nn1-c1ccc(OC)cc1)CS(=O)C2 (stereo unspecified) | inactive |
| O=C(Nc1cccc2ccccc12)N1N=CCC1c1ccccc1 (stereo unspecified) | inconclusive: 15.8 µM [inhibitor, single point] |
| CCOC(=O)N/N=C/c1cc(C)n(-c2cccc3ccccc23)c1C | inconclusive: 11.2 µM [inhibitor, partial curve] |
| COc1ccc(S(=O)(=O)N2CCOCC2)cc1NC(=O)CCOc1ccc(C(C)(C)C)cc1 | inconclusive: 0.447 µM [inhibitor, full curve] |
| COc1ccc2c(C)c(CCC(=O)NCc3ccccc3Cl)c(=O)oc2c1C | inconclusive: 35.5 µM [activator, single point] |
| Cc1ccc(-c2nn(CCC(N)=O)c(=O)c3ccccc23)cc1 | inactive |
| CCCc1nc2ccccc2c(=O)n1/N=C/c1ccc(O)c(O)c1 | inconclusive: 20 µM [inhibitor, partial curve] |
| Cc1ccc(S(=O)(=O)N(C)c2ccc(C(=O)NCc3ccccc3F)cc2)cc1 | inconclusive: 25.1 µM [inhibitor, single point] |
| COC(=O)c1ccc(-c2ccc(C(c3c(C)[nH][nH]c3=O)c3c(C)[nH][nH]c3=O)o2)cc1 | inactive |
| Nc1ccc2c(c1)C(=O)C(=O)c1ccccc1-2 | inconclusive: 2.82 µM [inhibitor, full curve, poor fit] |
| CCN(CC)c1ccc(S(=O)(=O)N2CCOCC2)cc1NC(=O)CSC(=S)N1CCCC1 | inactive |
| CNc1nnc(-c2cc3cc(Cl)ccc3oc2=O)s1 | inconclusive: 7.08 µM [activator, partial curve, poor fit] |
| CCN(CC)CCNC1=NCCn2c1cc1cc(OC)ccc12 | active: 8.2 µM |

Two entries from above, tab-delimited.
SMILES	Potency
Nc1ccc2c(c1)C(=O)C(=O)c1ccccc1-2	inconclusive: 2.82 µM [inhibitor, full curve, poor fit]
CCN(CC)c1ccc(S(=O)(=O)N2CCOCC2)cc1NC(=O)CSC(=S)N1CCCC1	inactive

(list continues)

| SMILES | Potency |
| --- | --- |
| COc1c(C)cccc1C(=O)Nc1ccc(N2CCN(S(C)(=O)=O)CC2)cc1 | inactive |
| O=C(C1=COCCO1)N1CCN(C(c2ccccc2)c2ccccc2)CC1 | inconclusive: 5.62 µM [activator, single point] |
| N/C(=N\OC(=O)c1ccccc1)c1ccccn1 | inconclusive: 14.1 µM [inhibitor, single point] |
| O=C(/C=C/c1ccc(Br)cc1)NCc1cccs1 | active: 2.59 µM |
| COc1ccc(-n2c(C)cc(C(=O)CN3C(=O)NC4(CCc5ccccc54)C3=O)c2C)cc1 (stereo unspecified) | inconclusive: 0.398 µM [inhibitor, partial curve, poor fit] |
| COc1ccc2c(CC(=O)NCCN3C(=O)S/C(=C\c4cccnc4)C3=O)coc2c1 | inconclusive: 31.6 µM [inhibitor, partial curve, poor fit] |
| CN(C)c1ccc(N=c2sc3ccccc3n2C)cc1 | inactive |
| CCN(CC)S(=O)(=O)c1cc(NC(=O)C(C)N(C)CC(=O)Nc2c(C)cccc2C)ccc1C (stereo unspecified) | inconclusive: 2.51 µM [inhibitor, full curve, poor fit] |
| CC(C)CCNc1nc(N2CCCC2)c2c(c1C#N)CCN(C)C2 | inconclusive: 16.4 µM [inhibitor, partial curve, poor fit] |
| CCOC(=O)c1cnc2ccc(OC)cc2c1Nc1cccc(C(C)=O)c1 | inconclusive: 7.94 µM [inhibitor, partial curve, poor fit] |
| CCOCCCNC(=O)CN1CCN(Cc2ccc(Cl)cc2)C1=O | inconclusive: 1.26 µM [inhibitor, single point] |
| Cc1onc(-c2ccccc2)c1C(=O)Nc1sc2c(c1C#N)CCC2 | inconclusive: 3.66 µM [inhibitor, full curve, poor fit] |
| S=c1[nH]nc(COc2ccccc2)n1-c1ccc(Cl)cc1 | inconclusive: 22.4 µM [inhibitor, single point] |
| O=C(C[C@H]1C(=O)N(c2ccc(Br)cc2)C[C@@H]1Cc1ccccc1)Nc1ccccc1 | active: 4.99 µM |
| COc1ccccc1-c1nnc(SCC(=O)c2ccc(C3CCCCC3)cc2)n1Cc1ccco1 | inconclusive: 17.8 µM [inhibitor, single point] |
| CCOC12NC(=O)CC(=O)N1C(c1ccccc1)=CS2 (stereo unspecified) | inconclusive: 16.4 µM [inhibitor, single point] |
| COc1ccc(N2CCN(c3cc(C)c4cccc(C)c4n3)CC2)cc1 | inconclusive: 0.794 µM [inhibitor, single point] |
| Cn1c(SCC(=O)N2CCN(S(=O)(=O)c3ccccc3)CC2)nc2ccccc21 | inactive |
| CCCC(c1nnnn1CS(=O)(=O)c1ccc(C)cc1)N1CCN(c2ccccc2)CC1 (stereo unspecified) | active: 11.2 µM |
| Cc1ccc(NC(=O)c2ccc([N+](=O)[O-])cc2)cc1S(=O)(=O)N(C)C | inconclusive: 35.5 µM [activator, partial curve, poor fit] |
| CCOC(=O)C1CCN(CC(=O)NC(=O)NC2CCCCC2)CC1 | inactive |
| CCc1cccc(NS(=O)(=O)c2ccc3c(c2)n(C)c(=O)n3C)c1 | inconclusive: 15.8 µM [inhibitor, single point] |
